Data as given in PubChem BioAssay AID1259254 (NCATS, 2017)
The deposit covers about 59,000 reagents; shown is a part drawn at random. Over the whole deposit, about 1,550 (2.6%) were called active. 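G2 share is only a proxy for re-replication; each gene was hit by three separate siRNAs, and active genes were retested.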 Further read-outs or replicates are left out here. The record does not give: the amount of reagent.

Aim: 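Genome-wide screen for genes that prevent DNA re-replication in cancer cells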 (primary screen)
System: human HCT116 colorectal cancer cells
Reagent: single siRNA against human genes
Time to read-out: 3 days
Measured: 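Nuclei stained with Hoechst and imaged; cell-cycle phase assigned by DNA content; G2 share scaled per plate, non-targeting siRNA 0%, GMNN siRNA 100%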
Scale: G2 robust z-score: higher = more G2 cells, more excess DNA replication
Active means: 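Active siRNAs have a G2 robust z of 5 or more median absolute deviations over the median, which in these data means about 38% or higher of GMNN control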

Gene | PubChem SID | G2 robust z-score | Call
DIMT1 | SID160738663 | 7.93 | active
DIMT1 | SID160738664 | -0.195 | inactive
DIMT1 | SID160738665 | 2.95 | inactive
MSR1 | SID160777478 | -0.143 | inactive
MSR1 | SID160777479 | -0.615 | inactive
MSR1 | SID160777480 | 0.0388 | inactive
FHL3 | SID160730803 | 0.922 | inactive
FHL3 | SID160765729 | 0.298 | inactive
FHL3 | SID160765738 | -0.286 | inactive
EXOC3L4 | SID160754115 | 0.0128 | inactive
EXOC3L4 | SID160754117 | -0.969 | inactive
EXOC3L4 | SID160754118 | 0.239 | inactive
BGN | SID160725885 | -1.27 | inactive
BGN | SID160725946 | 0.0738 | inactive
BGN | SID160726019 | -0.426 | inactive
RPA3 | SID160716014 | 0.0594 | inactive
RPA3 | SID160716015 | 0.0541 | inactive
RPA3 | SID160716016 | 0.357 | inactive
TADA3 | SID160728514 | -0.581 | inactive
TADA3 | SID160728515 | -0.755 | inactive
TADA3 | SID160728517 | -0.0403 | inactive
CCDC97 | SID160753644 | 1.34 | inactive
CCDC97 | SID160753645 | -0.492 | inactive
CCDC97 | SID160753646 | -0.268 | inactive
CCL27 | SID160729342 | 5.6 | active
CCL27 | SID160729343 | -0.379 | inactive
CCL27 | SID160729344 | 2.02 | inactive
FNDC3B | SID160747961 | -0.479 | inactive
FNDC3B | SID160747962 | -0.118 | inactive
FNDC3B | SID160747963 | 3.63 | inactive
OR1I1 | SID160756468 | -0.71 | inactive
OR1I1 | SID160756469 | 0.318 | inactive
OR1I1 | SID160756470 | -0.147 | inactive
DUSP8 | SID160730729 | 0.386 | inactive
DUSP8 | SID160757323 | -0.959 | inactive
DUSP8 | SID160757334 | -1.17 | inactive
LRRC4B | SID160754585 | 1.06 | inactive
LRRC4B | SID160754586 | 1.62 | inactive
LRRC4B | SID160754588 | -0.531 | inactive
DCAF7 | SID160727471 | 3.81 | inactive
DCAF7 | SID160727477 | -0.0135 | inactive
DCAF7 | SID160727482 | -0.00432 | inactive
AGAP3 | SID160755510 | 0.572 | inactive
AGAP3 | SID160755511 | 1.32 | inactive
AGAP3 | SID160755512 | -1.08 | inactive
DBNDD2 | SID160733630 | 0.0898 | inactive
DBNDD2 | SID160744547 | 4.68 | inactive
DBNDD2 | SID160744548 | 5.82 | active
